Source: PubChem BioAssay AID652243 (Drosophila RNAi Screening Center, 2013)
In all, the deposit lists about 24,000 reagents; shown is an unselected part of those with a known target gene and a result. In the full data, 246 (1%) got an active call. 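Plates not normalised; calls are printed but the firefly/Renilla ratio behind them is not deposited; fold cut for lowering reported inconsistently.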 Raw values are not corrected between plates. The numbers tell different reagents against one gene apart. Not given: the amount of reagent.

Purpose: 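Fly regulators of androgen-dependent reporter output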 (primary screen)
Cell system: Drosophila S2R+ cells
Reagents: long dsRNA against Drosophila genes
Duration: 72 h (48 h, then 24 h hormone)
Treatment: synthetic androgen R1881 at 10 nM for 24 h
Measurement: 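Per-well raw luminescence of the androgen-driven firefly reporter and of the Renilla control, two replicates each, without normalisation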
Direction: firefly reporter light: higher = more light from androgen-responsive reporter; Renilla control light: higher = more constitutive control signal (cell number, transfection)
Hit rule: 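Hit when the log firefly-to-Renilla ratio dropped or increased by a fixed fold versus the mean of GFP or LacZ controls across duplicate plates; lowering cut given as 1.5 and as 3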
Calls: active = hit: reporter lowered or raised; inactive = no hit

target | reagent | firefly reporter light, replicate 1 | firefly reporter light, replicate 2 | Renilla control light, replicate 1 | Renilla control light, replicate 2 | Call
Cep97 | 1 | 7.93e5 | 1.08e6 | 7.98e5 | 1.02e6 | inactive
Cep97 | 2 | – | – | – | – | inactive
Cep97 | 3 | – | – | – | – | inactive
E(spl)m8-HLH | 1 | 1.87e5 | 2.12e5 | 2.22e6 | 2.09e6 | inactive
E(spl)m8-HLH | 2 | 3.86e5 | 4.47e5 | 1.46e6 | 1.20e6 | inactive
CG4835 | 1 | 2.53e5 | 2.20e5 | 1.57e6 | 9.92e5 | inactive
CG4835 | 2 | 6.80e5 | 9.34e5 | 7.51e5 | 8.46e5 | inactive
nsl1 | 1 | 96462 | 90664 | 25935 | 13250 | inactive
Shal | 1 | 89985 | 1.16e5 | 2.84e5 | 2.94e5 | inactive
Shal | 2 | 2.58e5 | 2.16e5 | 2.41e6 | 2.73e6 | inactive

The list goes on; the last 3 above are carried over.
target | reagent | firefly reporter light, replicate 1 | firefly reporter light, replicate 2 | Renilla control light, replicate 1 | Renilla control light, replicate 2 | Call
nsl1 | 1 | 96462 | 90664 | 25935 | 13250 | inactive
Shal | 1 | 89985 | 1.16e5 | 2.84e5 | 2.94e5 | inactive
Shal | 2 | 2.58e5 | 2.16e5 | 2.41e6 | 2.73e6 | inactive
CG31804 | 1 | 8.53e5 | 7.26e5 | 1.32e6 | 1.15e6 | inactive
Cep89 | 1 | 35374 | 61148 | 8.13e5 | 8.13e5 | inactive
Cep89 | 2 | 4.04e5 | 5.19e5 | 8.86e5 | 8.86e5 | inactive
CG13675 | 1 | 2.26e5 | 3.72e5 | 1.54e6 | 1.91e6 | inactive
CG15140 | 1 | 2.76e5 | 3.26e5 | 2.77e6 | 3.42e6 | inactive
RpL4 | 1 | 41769 | 47080 | 2.99e5 | 3.05e5 | inactive
RpL4 | 2 | 2.50e5 | 1.86e5 | 1.15e6 | 3.11e5 | inactive
Jon99Ciii | 1 | 72648 | 97197 | 1.23e6 | 1.70e6 | inactive
Ns2 | 1 | 6.58e5 | 4.80e5 | 6.64e5 | 6.65e5 | inactive
Ns2 | 2 | 5.18e5 | 4.98e5 | 1.13e6 | 9.90e5 | inactive
jhamt | 1 | 1.17e5 | 1.38e5 | 1.84e6 | 1.45e6 | inactive
CG14456 | 1 | 1.06e5 | 1.15e5 | 1.34e6 | 1.59e6 | inactive
CG14456 | 2 | 3.92e5 | 4.29e5 | 2.78e5 | 5.92e5 | inactive
CG2685 | 1 | 1.39e5 | 1.71e5 | 2.17e6 | 2.59e6 | inactive
CG2685 | 2 | 3.51e5 | 2.74e5 | 8.63e5 | 8.03e5 | inactive
